{
  "source": "patent US4397676A",
  "about": "“N-Phosphonomethylglycine derivatives” (Geshuri Laboratories Ltd., priority 1982, dated 1983)",
  "test": "Solubility of NPMG-iminourea salts in water",
  "assay_type": "physicochemical",
  "settings": "of weight dissolved in 100 ml water at 20° C.",
  "method": "SOLUBILITY OF NPMG-IMINOUREA SALTS\nNPMG Salt 20° C. (in grams)",
  "note": "Structures can show the parent of a compound that is named as a salt. At least one read-out could not be matched to a standard name with certainty.",
  "data": [
    {"smiles": "O=C(O)CNCP(=O)(O)O", "note": "[I, NPMG MONO (GUANIDINE) SALT]", "values": [
      {"measurement": "NPMG equivalent", "result": 11.6}
    ]},
    {"smiles": "O=C(O)CNCP(=O)(O)O", "note": "[IV, NPMG MONO (DI-O-TOLYL GUANIDINE) SALT]", "values": [
      {"measurement": "NPMG equivalent", "setting": "listed as 1,3-Di-O--Tolyl Guanidine", "result": "~ 72.5"}
    ]},
    {"smiles": "O=C(O)CNCP(=O)(O)O", "note": "[V, NPMG MONO (TETRA METHYL GUANIDINE) SALT]", "values": [
      {"measurement": "NPMG equivalent", "setting": "listed as 1,1,3,3 Tetra Methyl Guanidine", "result": 98.0}
    ]},
    {"smiles": "O=C(O)CNCP(=O)(O)O", "note": "[III, NPMG MONO (DIPHENYL GUANIDINE) SALT]", "values": [
      {"measurement": "NPMG equivalent", "setting": "listed as 1,3 Diphenyl Guanidine", "result": "~ 88.9"}
    ]}
  ]
}
